From US20220241416A1, “METHODS FOR THE IDENTIFICATION OF SARM1 NADASE ACTIVITY INHIBITORS AND USES THEREOF” (Bar Ilan University, priority 2021, published 2022)
These are yes or no findings as the source states them, for the method shown. Some results given as binding are weak or reduced against the parent protein; the word gives no strength.

Molecular target: isolated SAM1-2 domains of hSARM1 (human) (UniProt Q6SZW1)
Experiment: cryo-EM 3D reconstruction with C8 symmetry (self-assembly)

binding: binds
B1: isolated SAM1-2 domains of hSARM1 (protein, human, UniProt Q6SZW1 387-548, looked up)
chain: SALAKRALRLLGEEVPRPILPSVPSWKEAEVQTWLQQIGFSKYCESFREQQVDGDLLLRLTEEELQTDLGMKSGITRKRFFRELTELKTFANYSTCDRSNLADWLGSLDPRFRQYTYGLVSCGLDRSLLHRVSEQQLLEDCGIHLGVHRARILTAAREMLHS
